Results taken from paper PMC10990277.
No constants are given. Whether binding was seen depends on the method and setting. Binding seen in cells or lysates may run through a third protein. Here binding means that the protein was enriched with, or labelled near, the bait; the list need not be complete. For some assays here: No binding means not detected with the bait.

Key:
Test in all cases: proximity labelling
[1] = biological target: E-HA/TurboID^Site3ΔDLLV (SARS-CoV-2) (UniProt P0DTC4)
[2] = biological target: E-HA/TurboID^Site4ΔDLLV (SARS-CoV-2) (UniProt P0DTC4)
[3] = biological target: E-HA/TurboID^Site3 (SARS-CoV-2) (UniProt P0DTC4)
[4] = biological target: E-HA/TurboID^Site4 (SARS-CoV-2) (UniProt P0DTC4)

| Substance | binding [1] | binding [2] | binding [3] | binding [4] |
| --- | --- | --- | --- | --- |
| PALS-1 (from UniProt Q8N3R9 1-675) | no binding | no binding | – | – |
| SEC24B (from UniProt O95487 1-1268) | – | – | binds | binds |
| SEC24A (from UniProt O95486 1-1093) | – | – | binds | binds |
| AP1AR/Gadkin (from UniProt Q63HQ0 1-302) | – | – | binds | – |
| SEC31A (from UniProt O94979 1-1220) | – | – | binds | binds |
| tight junction protein–1 (TJP1) (from UniProt Q07157 1-1748) | no binding | no binding | – | – |
